The values that follow come from publication PMC10933668.

The chains behind the UniProt entries cited, without tags or fusion partners. Residues count along the entry.
UniProt Q9NZQ7, 19-290: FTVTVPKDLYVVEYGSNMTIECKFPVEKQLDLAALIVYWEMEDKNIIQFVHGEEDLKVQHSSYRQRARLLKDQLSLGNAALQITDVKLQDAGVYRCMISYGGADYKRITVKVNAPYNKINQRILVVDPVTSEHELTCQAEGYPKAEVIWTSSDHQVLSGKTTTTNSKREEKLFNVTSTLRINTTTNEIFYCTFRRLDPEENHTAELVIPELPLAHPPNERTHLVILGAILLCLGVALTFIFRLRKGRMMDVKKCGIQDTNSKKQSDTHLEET
UniProt Q13308, 31-1070: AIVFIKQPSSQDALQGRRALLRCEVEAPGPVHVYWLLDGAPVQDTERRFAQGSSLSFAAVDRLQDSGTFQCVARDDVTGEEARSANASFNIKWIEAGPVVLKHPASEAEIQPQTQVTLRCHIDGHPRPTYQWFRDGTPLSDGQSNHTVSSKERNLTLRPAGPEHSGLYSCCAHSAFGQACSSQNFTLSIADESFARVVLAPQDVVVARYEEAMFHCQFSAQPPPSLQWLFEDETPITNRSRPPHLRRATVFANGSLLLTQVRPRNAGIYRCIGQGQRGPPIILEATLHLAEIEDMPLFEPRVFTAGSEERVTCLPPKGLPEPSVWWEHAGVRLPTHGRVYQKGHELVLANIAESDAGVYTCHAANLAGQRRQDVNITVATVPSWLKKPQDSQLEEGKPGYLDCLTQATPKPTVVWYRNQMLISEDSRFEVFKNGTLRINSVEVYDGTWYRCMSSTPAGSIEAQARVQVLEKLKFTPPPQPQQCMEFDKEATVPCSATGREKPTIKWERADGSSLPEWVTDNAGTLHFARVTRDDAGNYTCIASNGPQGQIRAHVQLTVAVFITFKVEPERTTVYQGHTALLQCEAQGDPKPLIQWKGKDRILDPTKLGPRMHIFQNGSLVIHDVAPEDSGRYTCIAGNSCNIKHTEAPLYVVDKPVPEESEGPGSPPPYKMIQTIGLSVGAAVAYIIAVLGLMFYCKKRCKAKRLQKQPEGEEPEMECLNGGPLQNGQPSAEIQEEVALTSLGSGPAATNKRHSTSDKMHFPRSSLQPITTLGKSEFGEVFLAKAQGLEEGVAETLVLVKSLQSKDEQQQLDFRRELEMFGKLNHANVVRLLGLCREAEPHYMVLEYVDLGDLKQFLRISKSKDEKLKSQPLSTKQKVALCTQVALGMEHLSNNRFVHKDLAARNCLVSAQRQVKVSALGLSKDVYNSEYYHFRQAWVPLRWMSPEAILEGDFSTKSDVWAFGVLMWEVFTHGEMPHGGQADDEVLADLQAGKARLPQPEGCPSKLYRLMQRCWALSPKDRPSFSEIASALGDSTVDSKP

For at least one entry, the source does not settle the construct or the ends of the probe. Results from cells or extracts need not show a direct contact.

The target of one data set is PD-L1 (PDL-1) (UniProt Q9NZQ7). The data set can be described thus: flow cytometry. The note with it: SKBR3 cells; Live-cell binding: about 1e5 cells in 200 uL D-PBS with 5 mM Mg2+, 37 C, 30 min, two washes, flow cytometry or confocal; protein on the cell surface; folded or branched DNA.
For data set [1], the target named is PTK7 (UniProt Q13308). The data set can be described thus: flow cytometry. The note with it: 5' phosphates, ligated into a circle by T4 DNA ligase, Live-cell binding: about 1e5 cells in 200 uL D-PBS with 5 mM Mg2+, 37 C, 30 min, two washes, flow cytometry or confocal, protein on the cell surface, folded or branched DNA.
Data set [2] concerns the target PTK7 (UniProt Q13308). Briefly: confocal microscopy. The note with it: Nalm6 and 697 cells; Live-cell binding: about 1e5 cells in 200 uL D-PBS with 5 mM Mg2+, 37 C, 30 min, two washes, flow cytometry or confocal; protein on the cell surface; label: FAM or Cy5 (5'); folded or branched DNA. On the technique in general: Flow cytometry measures light scatter and fluorescence of single cells or particles in a stream.

With ACAGGTTCTGGGGGGTGGGTGGGGAACCTGT [MJ5C], the binding result in the data set with PD-L1 (PDL-1) is “binds”. With “TGACTGATTTACGACCACTACAGCTAGCTTAGGGTTGGGGGTTGGTTGGCAGGCTAATGGAGCTCGTGGT / CGTAAATCAGTCAGTCTAACTGCTGCGCCGCCGGGAAAATACTGTACGGTTAGAC [CAR-ap9s-sgc8 bispecific circular aptamer]”, the binding result in the data set with PTK7 [1] (CD19-KO-Nalm6 and CD19-KO-697 cells) was “binds”; with PTK7 [1] (PTK7+ CCRF-CEM cells), “binds”. “GTCTAACTGCTGCGCCGCCGGGAAAATACTGTACGGTTAGAC [Sgc8]”: in the data set with PTK7 [2], the binding result is “binds”.
